# Source: the supplement of paper PMC8728848
# Some of the results follow.
# Experiments:
# Test in all cases: glycan array binding signal (z-score within array); higher = stronger binding
# Settings in all cases: glycan notation: IUPAC condensed, linker removed
# [1] = molecular target: Fuc(a1-2)[GalNAc(b1-3)]Gal
# In short: (§1)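 Glycan array data came from 3228 arrays in the Consortium for Functional Glycomics database, and only arrays with an available protein sequence were kept. Glycan names were put into IUPAC-condensed notation, and columns mapping to the same glycan were averaged. The binding signal is a within-array Z-score, averaged across arrays of one protein sequence run at different concentrations or buffers and across linkers. A negative Z-score can be read as non-binding.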
# [2] = molecular target: Fuc(a1-3)GlcNAc
# In short: as §1
# [3] = molecular target: Fuc(a1-3)[Gal(b1-4)]Glc6S
# In short: as §1
# [4] = molecular target: Fuc(a1-3)[Gal(b1-4)]GlcNAc
# In short: as §1
# [5] = molecular target: Fuc(a1-3)[Gal(b1-4)]GlcNAc(b1-2)Man
# In short: as §1
# [6] = molecular target: Fuc(a1-3)[Gal(b1-4)]GlcNAc(b1-2)Man(a1-3)[Fuc(a1-3)[Gal(b1-4)]GlcNAc(b1-2)Man(a1-6)]Man(b1-4)GlcNAc(b1-4)GlcNAc
# In short: as §1
# [7] = molecular target: Fuc(a1-3)[Gal(b1-4)]GlcNAc(b1-2)Man(a1-3)[Fuc(a1-3)[Gal(b1-4)]GlcNAc(b1-2)Man(a1-6)]Man(b1-4)GlcNAc(b1-4)[Fuc(a1-6)]GlcNAc
# In short: as §1
# [8] = molecular target: Fuc(a1-3)[Gal(b1-4)]GlcNAc(b1-3)Gal(b1-3)[Fuc(a1-4)]GlcNAc
# In short: as §1
# [9] = molecular target: Fuc(a1-3)[Gal(b1-4)]GlcNAc(b1-3)Gal(b1-4)[Fuc(a1-3)]GlcNAc
# In short: as §1
# [10] = molecular target: Fuc(a1-3)[Gal(b1-4)]GlcNAc(b1-3)Gal(b1-4)[Fuc(a1-3)]GlcNAc(b1-3)Gal(b1-4)[Fuc(a1-3)]GlcNAc
# In short: as §1
# [11] = molecular target: Fuc(a1-3)[Gal(b1-4)]GlcNAc(b1-3)GalNAc
# In short: as §1
# [12] = molecular target: Fuc(a1-3)[Gal(b1-4)]GlcNAc(b1-6)GalNAc
# In short: as §1
# [13] = molecular target: Fuc(a1-3)[Gal(b1-4)]GlcNAc(b1-6)[Gal(b1-3)GlcNAc(b1-3)]Gal(b1-4)Glc
# In short: as §1
# [14] = molecular target: Fuc(a1-3)[Gal(b1-4)]GlcNAc6S
# In short: as §1
# [15] = molecular target: Fuc(a1-3)[Gal3S(b1-4)]Glc
# In short: as §1
# [16] = molecular target: Fuc(a1-3)[Gal3S(b1-4)]GlcNAc
# In short: as §1
# [17] = molecular target: Fuc(a1-3)[Gal3S(b1-4)]GlcNAc6S
# In short: as §1
# [18] = molecular target: Fuc(a1-3)[GalNAc(b1-4)]GlcNAc
# In short: as §1
# [19] = molecular target: Fuc(a1-3)[GalNAc(b1-4)]GlcNAc6S
# In short: as §1
# [20] = molecular target: Fuc(a1-4)GlcNAc
# In short: as §1
# [21] = molecular target: Fuc(b1-3)GlcNAc
# In short: as §1
# [22] = molecular target: Gal(a1-2)Gal
# In short: as §1
# [23] = molecular target: Gal(a1-3)Gal
# In short: as §1
# [24] = molecular target: Gal(a1-3)Gal(b1-3)GlcNAc
# In short: as §1
# [25] = molecular target: Gal(a1-3)Gal(b1-3)GlcNAc(b1-2)Man
# In short: as §1
# [26] = molecular target: Gal(a1-3)Gal(b1-3)GlcNAc(b1-2)Man(a1-3)[Gal(a1-3)Gal(b1-3)GlcNAc(b1-2)Man(a1-6)]Man(b1-4)GlcNAc(b1-4)GlcNAc
# In short: as §1
# [27] = molecular target: Gal(a1-3)Gal(b1-3)GlcNAc(b1-3)GalNAc
# In short: as §1
# [28] = molecular target: Gal(a1-3)Gal(b1-3)GlcNAc(b1-6)GalNAc
# In short: as §1
# [29] = molecular target: Gal(a1-3)Gal(b1-3)[Fuc(a1-4)]GlcNAc(b1-2)Man(a1-3)[Gal(a1-3)Gal(b1-3)[Fuc(a1-4)]GlcNAc(b1-2)Man(a1-6)]Man(b1-4)GlcNAc(b1-4)GlcNAc
# In short: as §1
# [30] = molecular target: Gal(a1-3)Gal(b1-4)Glc
# In short: as §1
binder,measurement,setting,value
"AT3G09350(27) (Arabidopsis thaliana), Q84J81 (protein) MAKDGPNWDGLLKWSLSHADGTRPTRQLSEEDRKWFMEAMQSQTVDVVKRMKEITLVMQTPEQVLVEHGVTPEDIQDLLDELQEHVESIDMANDLHSIGGLVPLLSFLKNSHANIRAKAADVVSTIVQNNPRSQELVMETNALESLLSNFTSDTDIHARTQALGAISSLIRHNKPGVTAFKLANGYAGLRDALASDSVRFQRKALNLLQYLLQEDDSDRSIATGLGFPRVMMHLASSDDAEIREAALRGLLELSREKNDGSSSIDKSDEKLRQLLEERIKGITLMSQEDLETVKEERQLVDLLWSICYNEPSSLREKGLVVLPGEDALPPDVASKLFEPPLRASAANRNATEKKDEPMKLLGP",glycan array binding signal (z-score),[1],-0.043
same,glycan array binding signal (z-score),[2],0.323
same,glycan array binding signal (z-score),[3],0.877
same,glycan array binding signal (z-score),[4],-0.773
same,glycan array binding signal (z-score),[5],-0.779
same,glycan array binding signal (z-score),[6],-0.611
same,glycan array binding signal (z-score),[7],0.466
same,glycan array binding signal (z-score),[8],-0.365
same,glycan array binding signal (z-score),[9],0.668
same,glycan array binding signal (z-score),[10],0.666
same,glycan array binding signal (z-score),[11],-0.11
same,glycan array binding signal (z-score),[12],0.461
same,glycan array binding signal (z-score),[13],-0.671
same,glycan array binding signal (z-score),[14],0.496
same,glycan array binding signal (z-score),[15],-0.306
same,glycan array binding signal (z-score),[16],-0.67
same,glycan array binding signal (z-score),[17],0.118
same,glycan array binding signal (z-score),[18],3.56
same,glycan array binding signal (z-score),[19],-0.179
same,glycan array binding signal (z-score),[20],0.55
same,glycan array binding signal (z-score),[21],-0.444
same,glycan array binding signal (z-score),[22],-0.39
same,glycan array binding signal (z-score),[23],0.145
same,glycan array binding signal (z-score),[24],0.324
same,glycan array binding signal (z-score),[25],0.248
same,glycan array binding signal (z-score),[26],0.459
same,glycan array binding signal (z-score),[27],-0.377
same,glycan array binding signal (z-score),[28],-0.449
same,glycan array binding signal (z-score),[29],0.045
same,glycan array binding signal (z-score),[30],-0.343

# 2 consecutive entries from above:
binder,measurement,setting,value
"AT3G09350(27) (Arabidopsis thaliana), Q84J81 (protein) MAKDGPNWDGLLKWSLSHADGTRPTRQLSEEDRKWFMEAMQSQTVDVVKRMKEITLVMQTPEQVLVEHGVTPEDIQDLLDELQEHVESIDMANDLHSIGGLVPLLSFLKNSHANIRAKAADVVSTIVQNNPRSQELVMETNALESLLSNFTSDTDIHARTQALGAISSLIRHNKPGVTAFKLANGYAGLRDALASDSVRFQRKALNLLQYLLQEDDSDRSIATGLGFPRVMMHLASSDDAEIREAALRGLLELSREKNDGSSSIDKSDEKLRQLLEERIKGITLMSQEDLETVKEERQLVDLLWSICYNEPSSLREKGLVVLPGEDALPPDVASKLFEPPLRASAANRNATEKKDEPMKLLGP",glycan array binding signal (z-score),[10],0.666
same,glycan array binding signal (z-score),[11],-0.11
